Test: Bone powder binding, microbiological assay of supernatant
Settings: 1 mg/ml compound in bone meal powder slurry 10 mg/ml in PBS, 37° C., 1 h

| SMILES | % Bone binding [%] |
| --- | --- |
| CNC(CC(C)C)C(=O)NC1C(=O)NC(CC(N)=O)C(=O)NC2C(=O)NC3C(=O)NC(C(=O)NC(C(=O)OCC(=O)NC(P(=O)(O)O)P(=O)(O)O)c4cc(O)cc(O)c4-c4cc3ccc4O)C(O)c3ccc(c(Cl)c3)Oc3cc2cc(c3OC2OC(CO)C(O)C(O)C2OC2CC(C)(N)C(O)C(C)O2)Oc2ccc(cc2Cl)C1O (stereo not shown) [Compound 18] | 96.5 |
| CNC(CC(C)C)C(=O)NC1C(=O)NC(CC(N)=O)C(=O)NC2C(=O)NC3C(=O)NC(C(=O)NC(C(=O)OCC(=O)Nc4ccc(CC(P(=O)(O)O)P(=O)(O)O)cc4)c4cc(O)cc(O)c4-c4cc3ccc4O)C(O)c3ccc(c(Cl)c3)Oc3cc2cc(c3OC2OC(CO)C(O)C(O)C2OC2CC(C)(N)C(O)C(C)O2)Oc2ccc(cc2Cl)C1O (stereo not shown) [Compound 21] | 96.7 |
| CC(C)C[C@H](C(=O)N[C@H]1C(=O)N[C@@H](CC(N)=O)C(=O)N[C@H]2C(=O)N[C@H]3C(=O)N[C@H](C(=O)N[C@H](C(=O)O)c4cc(O)cc(O)c4-c4cc3ccc4O)[C@H](O[C@H]3C[C@](C)(N)[C@@H](O)[C@H](C)O3)c3ccc(c(Cl)c3)Oc3cc2cc(c3O[C@@H]2O[C@H](CO)[C@@H](O)[C@H](O)[C@H]2O[C@H]2C[C@](C)(NCc3ccc(-c4ccc(Cl)cc4)cc3)[C@@H](O)[C@H](C)O2)Oc2ccc(cc2Cl)[C@H]1O)N(C)C(=O)CCC(P(=O)(O)O)P(=O)(O)O [Compound 39] | 99.8 |
| CC(C)C[C@H](C(=O)N[C@H]1C(=O)N[C@@H](CC(N)=O)C(=O)N[C@H]2C(=O)N[C@H]3C(=O)N[C@H](C(=O)N[C@H](C(=O)O)c4cc(O)cc(O)c4-c4cc3ccc4O)[C@H](O[C@H]3C[C@](C)(N)[C@@H](O)[C@H](C)O3)c3ccc(c(Cl)c3)Oc3cc2cc(c3O[C@@H]2O[C@H](CO)[C@@H](O)[C@H](O)[C@H]2O[C@H]2C[C@](C)(NCc3ccc(-c4ccc(Cl)cc4)cc3)[C@@H](O)[C@H](C)O2)Oc2ccc(cc2Cl)[C@H]1O)N(C)C(=O)OCOC(=O)CCCC(P(=O)(O)O)P(=O)(O)O [Compound 60] | 99.9 |
| CC(C)C[C@H](C(=O)N[C@H]1C(=O)N[C@@H](CC(N)=O)C(=O)N[C@H]2C(=O)N[C@H]3C(=O)N[C@H](C(=O)N[C@H](C(=O)O)c4cc(O)cc(O)c4-c4cc3ccc4O)[C@H](O[C@H]3C[C@](C)(N)[C@@H](O)[C@H](C)O3)c3ccc(c(Cl)c3)Oc3cc2cc(c3O[C@@H]2O[C@H](CO)[C@@H](O)[C@H](O)[C@H]2O[C@H]2C[C@](C)(NCc3ccc(-c4ccc(Cl)cc4)cc3)[C@@H](O)[C@H](C)O2)Oc2ccc(cc2Cl)[C@H]1O)N(C)C(=O)OCOC(=O)CCC(P(=O)(O)O)P(=O)(O)O.O=C(O)C(F)(F)F.O=C(O)C(F)(F)F [Compound 65] | 96.9 |
| CN[C@H](CC(C)C)C(=O)N[C@H]1C(=O)N[C@@H](CC(N)=O)C(=O)N[C@H]2C(=O)N[C@H]3C(=O)N[C@H](C(=O)N[C@H](C(=O)O)c4cc(O)cc(O)c4-c4cc3ccc4O)[C@H](O[C@H]3C[C@](C)(N)[C@@H](O)[C@H](C)O3)c3ccc(c(Cl)c3)Oc3cc2cc(c3O[C@@H]2O[C@H](CO)[C@@H](O)[C@H](O)[C@H]2O[C@H]2C[C@](C)(NCc3ccc(-c4ccc(Cl)cc4)cc3)[C@@H](O)[C@H](C)O2)Oc2ccc(cc2Cl)[C@H]1O [Oritavancin, oritavancin, reference compound] | 0 |
| CN[C@H](CC(C)C)C(=O)N[C@H]1C(=O)N[C@@H](CC(N)=O)C(=O)N[C@H]2C(=O)N[C@H]3C(=O)N[C@H](C(=O)N[C@H](C(=O)O)c4cc(O)cc(O)c4-c4cc3ccc4O)[C@H](O)c3ccc(c(Cl)c3)Oc3cc2cc(c3O[C@@H]2O[C@H](CO)[C@@H](O)[C@H](O)[C@H]2O[C@H]2C[C@](C)(N)[C@H](O)[C@H](C)O2)Oc2ccc(cc2Cl)[C@H]1O [Vancomycin, vancomycin, reference compound] | 0 |
